Results taken from article PMC5325215.
No constants are given. Whether binding was seen depends on the method and setting. Binding seen in cells or lysates may run through a third protein. Some results given as binding are weak or reduced against the parent protein; the word gives no strength. Sequences can lack the tags named with a protein.

Tests used:
Test in all cases: co-IP; COS-7 cells co-transfected with FLAG-tagged FILIP or deletion mutants and EYFP-tagged FILIP; immunoprecipitation with an anti-FLAG antibody
[1] = biological target: T1, FILIP d248-442 (3 x FLAG tagged) (rat) (UniProt Q8K4T4)
T1 sequence: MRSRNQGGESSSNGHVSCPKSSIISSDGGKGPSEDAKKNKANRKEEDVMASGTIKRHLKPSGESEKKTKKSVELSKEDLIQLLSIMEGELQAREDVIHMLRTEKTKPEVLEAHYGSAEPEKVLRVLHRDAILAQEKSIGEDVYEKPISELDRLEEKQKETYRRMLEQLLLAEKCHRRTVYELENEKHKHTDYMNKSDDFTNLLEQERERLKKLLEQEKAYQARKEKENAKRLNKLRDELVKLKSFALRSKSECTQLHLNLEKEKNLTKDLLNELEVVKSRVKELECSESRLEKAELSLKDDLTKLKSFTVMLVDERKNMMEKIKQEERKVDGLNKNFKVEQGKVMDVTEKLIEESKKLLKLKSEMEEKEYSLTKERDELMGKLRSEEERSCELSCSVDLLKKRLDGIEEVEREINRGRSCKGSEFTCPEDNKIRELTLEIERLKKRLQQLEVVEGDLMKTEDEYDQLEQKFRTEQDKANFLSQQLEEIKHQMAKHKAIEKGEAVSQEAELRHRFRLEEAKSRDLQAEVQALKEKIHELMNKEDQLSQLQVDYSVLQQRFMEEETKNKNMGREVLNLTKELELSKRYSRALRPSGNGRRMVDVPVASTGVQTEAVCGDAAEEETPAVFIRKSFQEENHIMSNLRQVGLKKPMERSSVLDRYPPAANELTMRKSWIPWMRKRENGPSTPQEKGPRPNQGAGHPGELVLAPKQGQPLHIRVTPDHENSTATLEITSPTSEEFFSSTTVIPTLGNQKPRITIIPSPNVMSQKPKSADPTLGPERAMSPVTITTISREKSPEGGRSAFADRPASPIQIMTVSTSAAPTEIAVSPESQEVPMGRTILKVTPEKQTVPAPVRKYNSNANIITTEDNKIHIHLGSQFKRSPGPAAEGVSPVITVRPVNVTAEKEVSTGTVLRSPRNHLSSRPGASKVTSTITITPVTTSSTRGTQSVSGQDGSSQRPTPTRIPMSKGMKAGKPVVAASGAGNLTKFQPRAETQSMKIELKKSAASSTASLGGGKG

[2] = biological target: T2, 3 x FLAG tagged full-length FILIP (rat L-FILIP) (rat) (UniProt Q8K4T4)
T2 sequence: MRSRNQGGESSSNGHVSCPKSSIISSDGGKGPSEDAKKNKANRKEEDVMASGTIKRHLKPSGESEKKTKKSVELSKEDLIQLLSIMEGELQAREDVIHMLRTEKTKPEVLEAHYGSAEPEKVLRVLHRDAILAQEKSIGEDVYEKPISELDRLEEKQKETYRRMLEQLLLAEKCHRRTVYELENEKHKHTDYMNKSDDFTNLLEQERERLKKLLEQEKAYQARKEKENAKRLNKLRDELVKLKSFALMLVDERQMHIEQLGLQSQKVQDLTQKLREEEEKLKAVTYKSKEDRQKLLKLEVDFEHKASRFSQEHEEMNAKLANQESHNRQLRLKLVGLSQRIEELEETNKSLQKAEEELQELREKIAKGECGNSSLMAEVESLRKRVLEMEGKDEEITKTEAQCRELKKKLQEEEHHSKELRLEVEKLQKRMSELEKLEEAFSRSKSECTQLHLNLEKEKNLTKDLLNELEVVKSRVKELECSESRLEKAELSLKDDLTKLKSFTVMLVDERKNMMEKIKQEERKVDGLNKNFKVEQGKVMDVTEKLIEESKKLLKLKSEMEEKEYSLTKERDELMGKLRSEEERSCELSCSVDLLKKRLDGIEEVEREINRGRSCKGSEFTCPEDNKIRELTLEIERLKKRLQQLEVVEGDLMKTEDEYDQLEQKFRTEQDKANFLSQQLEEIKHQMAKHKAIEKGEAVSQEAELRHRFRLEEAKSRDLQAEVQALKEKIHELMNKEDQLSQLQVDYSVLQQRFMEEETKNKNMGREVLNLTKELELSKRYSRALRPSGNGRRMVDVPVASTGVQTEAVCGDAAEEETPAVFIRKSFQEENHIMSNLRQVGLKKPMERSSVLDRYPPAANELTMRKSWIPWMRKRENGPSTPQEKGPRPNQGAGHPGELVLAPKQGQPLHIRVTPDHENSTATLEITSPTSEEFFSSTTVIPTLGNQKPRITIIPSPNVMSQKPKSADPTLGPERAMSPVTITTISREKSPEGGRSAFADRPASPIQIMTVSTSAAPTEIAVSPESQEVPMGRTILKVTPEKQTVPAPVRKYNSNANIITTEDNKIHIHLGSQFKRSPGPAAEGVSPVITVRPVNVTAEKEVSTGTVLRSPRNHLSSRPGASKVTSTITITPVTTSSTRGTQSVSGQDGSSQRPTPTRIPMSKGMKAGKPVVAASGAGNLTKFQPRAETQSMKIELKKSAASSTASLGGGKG

[3] = biological target: T3, FILIP d872-1111 (3 x FLAG tagged) (rat) (UniProt Q8K4T4)
T3 sequence: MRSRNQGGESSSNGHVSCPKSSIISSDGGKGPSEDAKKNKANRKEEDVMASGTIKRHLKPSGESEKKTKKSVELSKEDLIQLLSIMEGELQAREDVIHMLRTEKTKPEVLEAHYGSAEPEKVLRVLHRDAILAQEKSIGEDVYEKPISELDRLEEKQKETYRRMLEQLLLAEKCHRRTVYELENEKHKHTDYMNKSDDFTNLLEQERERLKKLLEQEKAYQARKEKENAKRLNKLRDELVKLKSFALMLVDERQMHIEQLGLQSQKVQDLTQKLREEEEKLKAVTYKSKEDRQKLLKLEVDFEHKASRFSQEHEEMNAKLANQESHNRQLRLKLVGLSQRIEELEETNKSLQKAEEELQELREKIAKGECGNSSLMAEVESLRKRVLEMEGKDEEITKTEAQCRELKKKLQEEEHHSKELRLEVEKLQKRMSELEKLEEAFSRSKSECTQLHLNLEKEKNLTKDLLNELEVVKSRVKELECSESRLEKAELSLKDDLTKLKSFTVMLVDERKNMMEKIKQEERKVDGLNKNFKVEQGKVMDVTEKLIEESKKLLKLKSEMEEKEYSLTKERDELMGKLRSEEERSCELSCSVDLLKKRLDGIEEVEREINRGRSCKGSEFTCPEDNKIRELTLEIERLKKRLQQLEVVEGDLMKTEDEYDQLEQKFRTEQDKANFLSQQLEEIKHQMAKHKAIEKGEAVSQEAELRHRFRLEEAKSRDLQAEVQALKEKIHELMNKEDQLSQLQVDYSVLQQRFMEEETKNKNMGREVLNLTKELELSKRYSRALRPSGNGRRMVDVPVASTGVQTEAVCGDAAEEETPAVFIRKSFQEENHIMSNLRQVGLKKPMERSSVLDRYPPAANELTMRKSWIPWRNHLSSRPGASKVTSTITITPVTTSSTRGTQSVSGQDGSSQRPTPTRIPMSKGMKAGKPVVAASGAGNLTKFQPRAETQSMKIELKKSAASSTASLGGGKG

[4] = biological target: T4, FILIP d248-685 (3 x FLAG tagged) (rat) (UniProt Q8K4T4)
T4 sequence: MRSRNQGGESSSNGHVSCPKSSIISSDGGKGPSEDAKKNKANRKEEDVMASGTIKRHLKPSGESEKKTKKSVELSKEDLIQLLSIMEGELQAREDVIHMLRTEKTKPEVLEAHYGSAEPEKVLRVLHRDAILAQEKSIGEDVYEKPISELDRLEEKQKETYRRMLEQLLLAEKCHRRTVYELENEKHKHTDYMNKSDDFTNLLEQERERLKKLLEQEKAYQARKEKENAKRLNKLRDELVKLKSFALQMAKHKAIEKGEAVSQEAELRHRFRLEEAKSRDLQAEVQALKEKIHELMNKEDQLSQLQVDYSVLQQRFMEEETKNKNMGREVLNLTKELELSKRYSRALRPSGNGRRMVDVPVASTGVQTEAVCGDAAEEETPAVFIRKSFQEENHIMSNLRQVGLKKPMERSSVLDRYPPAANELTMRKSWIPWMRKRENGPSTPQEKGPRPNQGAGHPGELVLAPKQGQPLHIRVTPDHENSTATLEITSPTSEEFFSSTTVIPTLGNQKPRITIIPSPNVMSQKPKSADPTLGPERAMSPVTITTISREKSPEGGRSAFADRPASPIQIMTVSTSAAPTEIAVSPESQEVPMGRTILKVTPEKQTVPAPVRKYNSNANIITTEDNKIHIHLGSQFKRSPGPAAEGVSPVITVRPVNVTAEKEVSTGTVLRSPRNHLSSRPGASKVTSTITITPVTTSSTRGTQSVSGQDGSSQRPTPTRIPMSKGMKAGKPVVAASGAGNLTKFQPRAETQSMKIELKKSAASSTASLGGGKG

- binding [1]: binds weakly
- binding [2]: binds
- binding [3]: binds weakly
- binding [4]: no binding
B1: EYFP-tagged FILIP (rat L-FILIP, full length) (protein, UniProt Q8K4T4-1 1-1212)
chain: T2 sequence
